Results on two substances are retold here after patent US20110251128A1 (The Board of Regents of the University of Texas System, priority 2010, published 2011).

Protein sequences, listed by entry. Tags and fused reporters are not part of them. Lines headed by an entry give the natural chain unless they say otherwise; changes in a name come on top.
UniProt P62328: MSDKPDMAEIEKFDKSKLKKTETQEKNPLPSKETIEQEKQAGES

In data set [1] the test system is adult human cardiomyocytes. The data set can be described thus: Uptake of nanogold labeled AGES into cardiomyocytes. It counts as cell-based. The note with it: nanogold conjugate, ten minutes after external administration.
A short description of data set [2]: general procedure: Fmoc solid-phase peptide synthesis; Wang resin (Novabiochem); HBTU/HOBt. The note with it: conjugation step.

As to “nanogold labeled AGES: AGES peptide conjugated with mono-sulfo-hydroxi-succimido nanogold (Thymosin beta-4 nanogold label; UniProt P62328 41-44, looked up, fragment)”, the “intracellular localization in cardiomyocytes” value in data set [1] was “in the nuclei of adult human cardiomyocytes”; in data set [1] (listed as Nanogold labeled AGES conjugate), “enters the nucleus of adult human cardiomyocytes as early as ten minutes”.

Consider “protected chelator 1-AGES conjugate (SDKPDM; Thymosin beta-4 N-acetyl; UniProt P62328 2-7, looked up, fragment)”, for which the conjugation yield in data set [2] is given as 55%.
